Experimental data as given in PubChem BioAssay AID1347075 (National Center for Advancing Translational Sciences (NCATS), 2019).
Screen size: about 400,000 compounds; about 5,500 (1.4%) were called active. This list was built around the results that the source calls inconclusive (neither active nor inactive); the mix of calls is not that of the screen. The call rests on the fitted dose curve; in most records, active means well fitted cell-killing curve with a large enough effect; inconclusive means small, poorly fitted or top-dose-only effect, or effect the other way; inactive means flat fitted curve, though single readings scatter. Where the call is inconclusive, the potency comes from a doubtful curve fit.

Test: qHTS assay for MDR1-selective chemotherapeutics: Primary screen using the parental adenocarcinoma cell KB-3-1; further: nearly all actives have a fitted effect of over 60% in size
Conditions: KB-3-1 viability, CellTiter-Glo ATP luminescence, 72 h; activity change, negative = cytotoxic: at 46.1 µM (top of the series)
Procedure, shortened: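 KB-3-1 parental drug-naive adenocarcinoma cells in DMEM/10% FBS, incubated 72 h at 37 C with pin-transferred compounds across a concentration series. Viability by CellTiter-Glo luminescence; concentration-response curves fitted after normalization.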
On the % scale 0 is the no-effect control and ±100 the full control effect; potency means the concentration at half of the fitted maximal effect.

Question: With `CSc1nc2c(c(-c3ccc(O)cc3)c1C#N)CCC2` as the compound, how does the Potency read?
Answer: Its Potency is inconclusive: 13 µM [cytotoxic, partial curve, poor fit].

Question: Which Potency does the source give for `CCOc1ccc(NC(=O)CCNC(=O)Cn2cnc3ccccc3c2=O)cc1` here?
Answer: Its Potency is inconclusive: 2.06 µM [rising, partial curve, poor fit].

Question: Which Potency does the source give for `COC(=O)c1ccc2nc(-c3ccc(C)cc3)c(Cc3ccsc3)n2c1` here?
Answer: The Potency was inconclusive: 29.1 µM [cytotoxic, partial curve, poor fit].

Question: Which “activity change, negative = cytotoxic” value does the source give for `O=C(COC(=O)c1cc(S(=O)(=O)N2CCOCC2)ccc1F)Nc1ccccc1C(F)(F)F` here?
Answer: Its value is inactive: 25.2%.

Question: Which Potency does the source give for `O=C1c2[nH]nc(-c3ccccc3O)c2C(c2cccc(Cl)c2)N1Cc1ccco1` (stereo unspecified) here?
Answer: Its Potency is inconclusive: 23.1 µM [cytotoxic, single point].

Question: With `COC(=O)c1ccc(/C=C/c2c(-c3ccsc3)sc3ccccc23)cc1` as the compound, how does the activity change, negative = cytotoxic read?
Answer: The activity change, negative = cytotoxic was inconclusive: -14.2%.

Question: For `O=C1c2cccc3cc([N+](=O)[O-])cc(c23)C(=O)N1CC1CCCO1` (stereo unspecified), which Potency is on record?
Answer: The Potency was inconclusive: 18.4 µM [cytotoxic, single point].

Question: Which Potency does the source give for `O=C1CCCc2c1[nH]c1ccc(Br)cc21` here?
Answer: Its Potency is active: 0.651 µM.

Question: For `CCN(CC)CC(=O)N1c2ccccc2CCc2ccc(NC(=O)c3cc(OC)c(OC)c(OC)c3)cc21`, which “activity change, negative = cytotoxic” value is on record?
Answer: Its value is inactive: 9%.

Question: Which “activity change, negative = cytotoxic” value does the source give for `CCc1cc2c(=O)c(-c3cnn(-c4ccccc4)c3)c(C)oc2cc1OCC(=O)Nc1ccc(F)c(F)c1` here?
Answer: The value was inactive: 2.66%.

Question: With `CC1CCC2C(=O)N(c3ccc(NC4CCN(Cc5ccccc5)CC4)c([N+](=O)[O-])c3)C(=O)C2C1` (stereo unspecified) as the compound, how does the “activity change, negative = cytotoxic” value read?
Answer: Its value is inactive: -5.74%.

Question: With `O=C(NCCOc1cccc2cccnc12)c1cccs1` as the compound, how does the “activity change, negative = cytotoxic” value read?
Answer: Its value is inactive: 9.95%.

Question: Which Potency does the source give for `Cc1cc(NS(=O)(=O)c2ccc(NC(=O)C3CCCCC3)cc2)no1` here?
Answer: Its Potency is inconclusive: 1.3 µM [rising, full curve].

Question: For `CCCCCc1ccc(S(=O)(=O)NCCc2ccncc2)cc1`, which Potency is on record?
Answer: Its Potency is inconclusive: 18.4 µM [cytotoxic, single point].

Question: For `CC1CCc2sc(C(=O)NC3CCN(Cc4ccccc4)CC3)cc2C1` (stereo unspecified), which Potency is on record?
Answer: Its Potency is inconclusive: 32.6 µM [cytotoxic, partial curve, poor fit].

Question: With `C[C@@]12C(=O)Nc3cc(F)c(F)cc3C(=O)N1[C@H]1c3cc(Cl)ccc3OC[C@@H]1[C@@H]2c1ccccc1` as the compound, how does the Potency read?
Answer: The Potency was inconclusive: 20.6 µM [cytotoxic, single point].

Question: Which Potency does the source give for `C[C@@H]1CN([C@H](C)CO)C(=O)c2cccc(NC(=O)Nc3ccc(F)cc3)c2O[C@H]1CN(C)C(=O)Nc1ccc(C(F)(F)F)cc1` here?
Answer: The Potency was inconclusive: 29.1 µM [cytotoxic, single point].

Question: For `Cc1ccccc1NC(=O)CSc1nc2c(oc3ccccc32)c(=O)n1-c1ccccc1F`, which “activity change, negative = cytotoxic” value is on record?
Answer: Its value is inactive: 6.07%.

Question: With `Cc1nn(C(C)(C)C)c(OC(=O)C2CCCC2)c1S(=O)(=O)c1ccccc1` as the compound, how does the Potency read?
Answer: The Potency was active: 20.6 µM.

Question: Which “activity change, negative = cytotoxic” value does the source give for `O=S1(=O)N=C(Oc2ccc3ccccc3c2)c2ccccc21` here?
Answer: Its value is inactive: -2.62%.

Question: With `CCCCCCCCCCC(C)(C)C(=O)Nc1c(OC)cc(OC)cc1OC` as the compound, how does the activity change, negative = cytotoxic read?
Answer: The activity change, negative = cytotoxic was inconclusive: -12.7%.

Question: Which Potency does the source give for `CCCNc1c(NS(=O)(=O)c2c(F)c(F)c(F)c(F)c2F)c(=O)oc2ccccc12` here?
Answer: The Potency was inconclusive: 11.6 µM [cytotoxic, partial curve, poor fit].

Question: Which Potency does the source give for `COc1ccc(-n2c(C)cc(-c3csc(N)n3)c2C)cc1` here?
Answer: The Potency was inconclusive: 18.4 µM [cytotoxic, single point].

Question: Which “activity change, negative = cytotoxic” value does the source give for `CCN1CCN(c2nc(N(C)c3ccccc3)nc(N)c2[N+](=O)[O-])CC1` here?
Answer: The value was inactive: 0.795%.

Question: Which Potency does the source give for `COC(=O)c1ccc(Nc2cc(C)nc3ccc(C)cc23)cc1` here?
Answer: Its Potency is active: 6.51 µM.

Question: With `CC1CCCC(N2CCN(C(=O)c3ccc([N+](=O)[O-])cc3)CC2)C1` (stereo unspecified) as the compound, how does the “activity change, negative = cytotoxic” value read?
Answer: Its value is inactive: -0.0092%.

Question: For `CCOC(=O)C1=C(COC(=O)/C=C/c2ccccc2Cl)NC(=O)NC1C` (stereo unspecified), which Potency is on record?
Answer: Its Potency is inconclusive: 29.1 µM [rising, single point].

Question: For `CCN(CC)CCNC(=O)c1ccc(NC(=O)c2cc(-c3ccncc3)nc3ccccc23)cc1`, which Potency is on record?
Answer: The Potency was inconclusive: 29.1 µM [cytotoxic, single point].

Question: Which Potency does the source give for `O=C(CCN1CCc2ccccc2C(c2ccccc2)C1)c1ccc2c(c1)OCCO2` (stereo unspecified) here?
Answer: The Potency was inconclusive: 29.1 µM [cytotoxic, single point].

Question: Which Potency does the source give for `CC(C)C[C@H]1CNC(=S)N1C[C@H]1CCCN1C[C@H](Cc1ccc(O)cc1)N1C[C@H](Cc2ccccc2)N(CC2CCCCCC2)C1=S` here?
Answer: Its Potency is inconclusive: 29.1 µM [cytotoxic, partial curve, poor fit].

Question: With `COc1ccc2nc(SCC(=O)NC3CCCCC3C)[nH]c2c1` (stereo unspecified) as the compound, how does the Potency read?
Answer: The Potency was inconclusive: 3.26 µM [cytotoxic, partial curve, poor fit].

Question: With `CC(C)N(C(=O)[C@H]1C[C@H](CC(=O)NCc2cccc(C(F)(F)F)c2)C(=O)N2CCc3c([nH]c4cc(-c5ccco5)ccc34)[C@]12C)C(C)C` as the compound, how does the Potency read?
Answer: Its Potency is inconclusive: 29.1 µM [cytotoxic, single point].

Question: With `COc1ccccc1N1CCN(S(=O)(=O)CCNC(=O)c2cc(OC)c(OC)c(OC)c2)CC1` as the compound, how does the Potency read?
Answer: Its Potency is active: 6.51 µM.

Question: With `CC(C)(C)c1ccc(C(=O)NC(=S)N2CCCCCC2)cc1` as the compound, how does the Potency read?
Answer: The Potency was inconclusive: 20.6 µM [cytotoxic, single point].

Question: For `Cc1ccc([C@H]2C[C@H](O)[C@@H](n3cc(COC(=O)c4ccccc4)nn3)CN2Cc2cccs2)cc1`, which Potency is on record?
Answer: Its Potency is inconclusive: 29.1 µM [cytotoxic, single point].

Question: With `COc1ccc(-c2ccc3ncnc(NCC4CCCO4)c3c2)cc1OC` (stereo unspecified) as the compound, how does the Potency read?
Answer: Its Potency is inconclusive: 20.6 µM [cytotoxic, single point].

Question: For `CCOC(=O)C(C)Sc1ccc2nnc(-c3ccc(OCC)cc3)n2n1` (stereo unspecified), which Potency is on record?
Answer: Its Potency is inconclusive: 11.6 µM [cytotoxic, partial curve, poor fit].

Question: With `Cc1ccc(NS(=O)(=O)c2ccc3c(c2)NC(=O)CCS3)c(Br)c1` as the compound, how does the Potency read?
Answer: Its Potency is inconclusive: 23.1 µM [cytotoxic, single point].

Question: For `O=C(N/N=C/c1cccn1-c1cccc(C(=O)O)c1)Nc1ccccc1`, which “activity change, negative = cytotoxic” value is on record?
Answer: The value was inactive: -0.632%.

Question: Which “activity change, negative = cytotoxic” value does the source give for `CC(C)C[C@H]1CN(CCCC[C@@H]2CNC(=O)C(=O)N2CC2CCCCC2)C(=O)C(=O)N1CCc1ccc(O)cc1` here?
Answer: Its value is inactive: 12.2%.

Question: For `Cc1onc(-c2ccccc2)c1C(=O)Nc1sc2c(c1C#N)CCC(C)C2` (stereo unspecified), which Potency is on record?
Answer: Its Potency is inconclusive: 29.1 µM [cytotoxic, single point].
